Our source for the binding values is article doi:10.1101/2025.10.21.683800.

The chains behind the UniProt entries cited, without tags or fusion partners. Where a name states a change or a piece, a line headed by the entry shows the natural chain unless it says otherwise.
UniProt P36873: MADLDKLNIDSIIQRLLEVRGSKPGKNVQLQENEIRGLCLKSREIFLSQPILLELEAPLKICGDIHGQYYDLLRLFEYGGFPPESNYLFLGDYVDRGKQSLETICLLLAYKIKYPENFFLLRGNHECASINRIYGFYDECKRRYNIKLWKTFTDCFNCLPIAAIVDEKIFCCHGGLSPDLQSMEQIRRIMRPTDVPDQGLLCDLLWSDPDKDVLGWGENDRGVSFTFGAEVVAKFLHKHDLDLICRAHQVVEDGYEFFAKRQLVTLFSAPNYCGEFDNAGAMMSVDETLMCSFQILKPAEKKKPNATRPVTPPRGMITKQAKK
UniProt P49759: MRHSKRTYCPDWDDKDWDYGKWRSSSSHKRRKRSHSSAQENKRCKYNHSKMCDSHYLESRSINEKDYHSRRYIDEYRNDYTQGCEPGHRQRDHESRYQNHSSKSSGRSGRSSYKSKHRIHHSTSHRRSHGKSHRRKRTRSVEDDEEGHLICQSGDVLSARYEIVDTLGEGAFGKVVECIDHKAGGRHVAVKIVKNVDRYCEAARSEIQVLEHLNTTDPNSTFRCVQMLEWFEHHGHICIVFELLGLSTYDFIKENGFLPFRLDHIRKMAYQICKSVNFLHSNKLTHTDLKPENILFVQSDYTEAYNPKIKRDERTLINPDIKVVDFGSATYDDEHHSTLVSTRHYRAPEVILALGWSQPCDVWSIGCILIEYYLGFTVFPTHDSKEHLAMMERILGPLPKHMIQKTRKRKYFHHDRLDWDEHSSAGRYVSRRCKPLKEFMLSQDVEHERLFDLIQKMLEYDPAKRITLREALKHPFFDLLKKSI
UniProt P41236: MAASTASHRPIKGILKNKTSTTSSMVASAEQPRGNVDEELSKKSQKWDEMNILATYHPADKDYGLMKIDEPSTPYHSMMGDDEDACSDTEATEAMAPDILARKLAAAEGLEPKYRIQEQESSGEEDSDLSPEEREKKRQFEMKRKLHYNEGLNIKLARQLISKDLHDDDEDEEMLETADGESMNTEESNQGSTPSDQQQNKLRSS
UniProt Q12972: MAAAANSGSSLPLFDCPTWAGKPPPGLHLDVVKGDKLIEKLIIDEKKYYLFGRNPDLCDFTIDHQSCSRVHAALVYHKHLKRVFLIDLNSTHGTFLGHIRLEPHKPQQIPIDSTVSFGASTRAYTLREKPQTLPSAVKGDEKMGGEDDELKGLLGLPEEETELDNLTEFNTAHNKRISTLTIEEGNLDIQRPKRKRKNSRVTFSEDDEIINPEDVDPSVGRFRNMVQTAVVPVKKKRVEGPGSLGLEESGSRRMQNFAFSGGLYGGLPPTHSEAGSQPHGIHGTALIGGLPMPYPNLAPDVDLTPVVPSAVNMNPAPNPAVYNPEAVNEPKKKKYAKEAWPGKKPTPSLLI

Where two headings read alike, the source gives them in different places. No constants are given. Whether binding was seen depends on the method and setting. For some of these results: In cells and extracts the contact can be indirect. Some binding calls cover weakened binding; strength is not graded here.

Assay [1] concerns the target MBP-FLAG-PPP1CC-His (human) (UniProt P36873). As to the kind of experiment: pull-down.
Assay [2] shares this target. The assay is described as follows: pull-down. This is another data set of the same source.
In assay [3] the target is PPP1CC, catalytic subunit of PP1, in HeLa lysate (human (endogenous in HeLa)) (UniProt P36873). The assay is described as follows: co-IP.
For assay [4], the target named is MBP-FLAG-PPP1CC-His (human) (UniProt P36873). As to the kind of experiment: pull-down. The source holds these as a separate data set.
Assay [5] addresses FLAG-CLK1 S341A mutant (made in the kinase-dead K191R control) (human) (UniProt P49759). The assay is described as follows: co-IP.

Regarding “recombinant PPP1R2 (from UniProt P41236 1-205)”, the binding entry in assay [1] and in assay [2] was “binds” throughout.
Consider “PPP1R8 in HeLa lysate (from UniProt Q12972 1-351)”, for which the binding entry in assay [3] is reported as “binds”.
Regarding “recombinant PPP1R8 (from UniProt Q12972 1-351)”, the binding result in assay [1], in assay [4] and in assay [2] was “binds” each time.
For the substance “PPP1CC, catalytic subunit of PP1, in HeLa lysate (from UniProt P36873 1-323) (enzyme)”, the binding entry in assay [5] is reported as “binds”.
